No constants are given. Whether binding was seen depends on the method and setting. In cells and extracts the contact can be indirect. Some entries that bind do so weakly or less than the wild type. Sequences can lack the tags named with a protein.
Target: T1, YFP:Kin-12F (AtRPS5a»Dex»YFP:Kin-12F) (Arabidopsis thaliana) (UniProt F4JDI6)
T1 sequence: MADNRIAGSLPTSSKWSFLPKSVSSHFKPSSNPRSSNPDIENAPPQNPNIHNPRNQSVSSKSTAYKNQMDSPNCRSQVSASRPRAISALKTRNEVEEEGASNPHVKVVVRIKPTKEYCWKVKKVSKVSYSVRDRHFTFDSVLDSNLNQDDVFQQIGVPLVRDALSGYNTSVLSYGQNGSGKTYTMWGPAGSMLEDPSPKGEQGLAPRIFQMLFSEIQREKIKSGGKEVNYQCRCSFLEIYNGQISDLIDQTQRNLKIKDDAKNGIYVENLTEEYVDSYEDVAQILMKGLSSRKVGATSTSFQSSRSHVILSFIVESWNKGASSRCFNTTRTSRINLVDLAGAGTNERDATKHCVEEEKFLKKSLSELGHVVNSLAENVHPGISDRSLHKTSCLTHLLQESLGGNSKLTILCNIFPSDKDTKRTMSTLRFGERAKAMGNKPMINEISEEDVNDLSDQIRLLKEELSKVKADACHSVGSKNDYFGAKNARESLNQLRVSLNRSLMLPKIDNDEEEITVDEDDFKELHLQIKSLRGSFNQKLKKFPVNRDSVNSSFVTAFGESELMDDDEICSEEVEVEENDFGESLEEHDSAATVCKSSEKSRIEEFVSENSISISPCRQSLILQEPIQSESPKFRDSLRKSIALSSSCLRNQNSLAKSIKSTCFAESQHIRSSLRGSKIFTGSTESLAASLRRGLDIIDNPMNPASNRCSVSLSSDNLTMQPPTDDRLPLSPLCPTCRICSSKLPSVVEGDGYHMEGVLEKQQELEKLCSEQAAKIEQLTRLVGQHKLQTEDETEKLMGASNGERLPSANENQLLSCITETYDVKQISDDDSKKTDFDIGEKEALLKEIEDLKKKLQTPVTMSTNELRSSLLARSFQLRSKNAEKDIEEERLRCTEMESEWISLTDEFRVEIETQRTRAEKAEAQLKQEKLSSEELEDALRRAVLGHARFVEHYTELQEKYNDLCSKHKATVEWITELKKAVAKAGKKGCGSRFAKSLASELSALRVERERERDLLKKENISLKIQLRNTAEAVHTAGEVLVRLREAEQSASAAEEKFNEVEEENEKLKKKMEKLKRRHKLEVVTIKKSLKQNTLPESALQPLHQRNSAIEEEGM
Assay: co-IP; extract of Arabidopsis seedlings (20 µM Dex for 16 h) in buffer with 2% CHAPS, cross-linked with 1 mM DTSSP, µMACS anti-GFP magnetic beads, blots with anti-GFP and anti-RAB-A2a

B1: mCherry:RAB-A2a (p35S::mCherry:RAB-A2a) (protein, UniProt O04486 1-217)
chain: MARRPDEEYDYLFKVVLIGDSGVGKSNLLSRFTRNEFCLESKSTIGVEFATRTLQVEGRTVKAQIWDTAGQERYRAITSAYYRGALGALLVYDVTKPTTFENVSRWLKELRDHADSNIVIMLIGNKTDLKHLRAVATEDAQSYAEKEGLSFIETSALEALNVEKAFQTILSEVYRIISKKSISSDQTTANANIKEGQTIDVAATSESNAKKPCCSSS
Question: For B1, which binding is on record?
Answer: binds

Source: publication PMC13323771
